Test system: mouse model of generalised seizure (tonic hind limb extensor convulsions)
Assay: Maximal electroshock seizure threshold (MEST) test in the mouse
Conditions: i.p., 2.5 mg/kg, 30 min post dose
Method: The efficacy of compound 1 was tested in a mouse model of generalised seizure, the maximal electroshock seizure threshold (MEST) test.
The maximal electroshock seizure threshold (MEST) test is widely utilized preclinically to evaluate pro-or anti-convulsant properties of test compounds (Loscher et al., 1991).
In the MEST test the ability of a drug to alter the seizure threshold current required to induce hind limb tonic extensor convulsions is measured according to an “up and down” method of shock titration (Kimball et al., 1957). An increase in seizure threshold is indicative of anti-convulsant effect.
The ability of a test compound to alter the stimulus intensity, expressed as current (mA), required to induce the presence of tonic hind limb extensor convulsions, is assessed in the MEST.
Naïve mice were acclimatised to the procedure room in their home cages for up to 7 days, with food and water available ad libitum.
All animals were weighed at the beginning of the study and randomly assigned to treatment groups based on a mean distribution of body weight across groups. […]
Test compound effects were also calculated as percentage change in CC50 from the vehicle control group.
Significant difference between drug-treated animals and controls were assessed according to Litchfield and Wilcoxon (1949).

CN1C(=O)CN=C(c2ccccc2)c2cc(Cl)ccc21 [Diazepam, diazepam, reference compound]
CC50 +/- SEM: 78.5 ± 1.0 mA | CC50 +/- SEM (listed as diazepam): 78.5 mA
